# In US12558435B2, “Transient inhibition of p53 in gene therapy” (Ospedale San Raffaele S.R.L., priority 2018, dated 2026):
# Some entries share one result that the patent states for a list of compounds.
# System: human CD34+ cells
# Assay type: cell-based
# Conditions: AAVS1; most primitive compartment (CD34+133+90+ / CD90+); 96 hours; FIG. 14C
# Procedure: CD34+ cells were either freshly purified from human CB after obtaining informed consent and upon approval by the Ospedale San Raffaele Bioethical Committee, or purchased frozen from Lonza. CD34+ cells were edited according to a previously optimized protocol (Schiroli et al. 2017 supra).
# Briefly, 5×10^5 CD34+ cells/ml were stimulated in serum-free StemSpan medium (StemCell Technologies) supplemented with penicillin, streptomycin, glutamine, 1 μM SR-1 (Biovision), […] (STEMCell Technologies), 10 μM PGE2 added only at the beginning of the culture (Cayman), and human early-acting cytokines (SCF 100 ng/ml, Flt3-L 100 ng/ml, TPO 20 ng/ml, and IL-6 20 ng/ml; all purchased from Peprotech). After 3 days of prestimulation, cells were washed with PBS and electroporated using P3 Primary Cell 4D-Nucleofector X Kit and program EO-100 (Lonza). Cells were electroporated with 2.5-1.25 μM of RNPs.
# Transduction with AAV6 was performed at a dose of 1-2×10^4 vg/cell 15′ after electroporation. […] Gene editing efficiency was measured from cultured cells in vitro 3 days after electroporation by flow cytometry measuring the percentage of cells expressing the GFP marker or by digital droplet PCR analysis designing primers and probe on the junction between the vector sequence and the targeted locus and on control sequences utilized as normalizer as previously described (Schiroli et al. 2017 supra). […]
molecule,measurement,value
"E4orf6/7: adenoviral protein from adenovirus serotype 5 E4 gene (SEQ ID No. 2), delivered as mRNA (protein, delivered as mRNA; example amino acid sequence of Ad5-E4orf6/7) MTTSGVPFGMTLRPTRSRLSRRTPYSRDRLPPFETETRATILEDHPLLPECNTLTMHNAWTSPSPPVKQPQVGQQPVAQQLDSDMNLSELPGEFINITDERLARQETVWNITPKNMSVTHDMMLFKASRGERTVYSVCWEGGGRLNTRVL",increase of GFP expression compared to standard RNP+AAV6,≤ 1.5 fold
